Reference: PubChem BioAssay (NCATS)
Some of the results follow. The main result of the screen is listed elsewhere. These columns were measured beside it and carry no call. The list favours compounds with an active or inconclusive main result. For part of these data: The note in brackets gives the kind of curve behind each potency; many fits are weak.

Key:
[1] = qHTS Assay for Inhibitors of PDE-IV (AID 607); settings: HEK293 ACTOne CNG channel cells, membrane potential fluorescence; measured here: parental cell counter-screen
How it was run: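 Live HEK293 cells with a modified cyclic nucleotide-gated (CNG) channel report intracellular cAMP via membrane-potential dye fluorescence (ex 535/em 590 nm). Endogenous PDE-IV was targeted. Compounds were tested at up to 22.9 uM final; RO 20-1724 100 uM served as control.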

[2] = qHTS assay for small molecule antagonists of retinoid X receptor alpha signaling (AID 588546); settings: HEK293T RXRa-UAS-bla, beta-lactamase ratio, antagonist mode; measured here: W530 green channel, cytotoxicity proxy;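 note: cells stimulated with 9-cis-retinoic acid as agonist; % is set by controls: 0 for no effect and ±100 for the full control effect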
How it was run: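 Beta-lactamase reporter inhibition, read as CCF4 fluorescence ratio (ex 405, em 460/530 nm) after 2 h at RT. HEK293T UAS-bla cells, 2500/well, were stimulated with 9-cis-RA at 500 or 100 nM final alongside test compound for 18 h at 37 C.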

[3] = S16 Schwann cell PMP22 intronic element beta-lactamase assay (AID 624044); settings: S16 rat Schwann cells, PMP22 element beta-lactamase FRET, 24 h
How it was run: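 Rat S16 Schwann cells with beta-Lac driven by a PMP22 intronic element, compound-treated 24 h at 37 °C. LiveBLAzer FRET B/G read: 460 nm normalized to potassium clavulanate vs DMSO; 535 nm FRET as viability; concentration-effect curves classified.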

[4] = measured here: 460 nm blue channel
[5] = measured here: 530 nm viability channel

## Nc1nc(SCc2ccccc2Cl)cc(C(=O)O)n1
[1]
  AC50: 1.58 µM [rising, partial curve]

## CCCOc1cc(N)ccc1C(=O)OCCN(CC)CC
[1]
  AC50: 6.31 µM [rising, partial curve, poor fit]

## O=C(c1cnccn1)N1CCC2(CCN(Cc3nccs3)CC2)CC1
[1]
  AC50: 3.98 µM [rising, single point]

## C[C@@H]1C[C@H]2[C@@H]3C[C@H](F)C4=CC(=O)C=C[C@@]4(C)[C@]3(F)[C@H](O)C[C@]2(C)[C@@]1(O)C(=O)CO
[1]
  AC50: 0.158 µM [rising, full curve, poor fit]

## O=C(NCc1ccccn1)[C@H]1C[C@@H]1[C@H](NP(=O)(c1ccccc1)c1ccccc1)c1ccccc1
[1]
  AC50: 0.631 µM [rising, single point]

## CCCCCCC(O)CCCCCCCCCCC(=O)OC (stereo not drawn)
[2]
  max response: -7.31%

## CCCCC1(COC(=O)CCC(=O)O)C(=O)N(c2ccccc2)N(c2ccccc2)C1=O
[1]
  AC50: 6.31 µM [rising, partial curve, poor fit]

## CCCCN(CCCC)CCCCCCN(CCCC)CCCC
[2]
  max response: -9.64%

## Cc1cccc2cccnc12
[2]
  max response: -11.2%

## Cc1cccc(CNc2nc(-c3c(C)noc3C)nc3ccccc23)c1
[1]
  AC50: 12.6 µM [rising, single point]

## CCc1cccc2c(-c3ccccc3)c3c(nc12)OCC3
[1]
  AC50: 10 µM [rising, single point]

## N#Cc1ccc(CN2CCCC3(CCN(C(=O)c4cccc(F)c4)CC3)C2)cc1
[1]
  AC50: 12.6 µM [rising, single point]

## COc1ccccc1-c1nccc(Nc2ccc(F)cc2)n1
[1]
  AC50: 10 µM [rising, partial curve]

## CCC[C@@H]1C[C@@]1(CCC)C(NP(=O)(c1ccccc1)c1ccccc1)c1ccc(Cl)cc1 (stereo partly drawn)
[1]
  AC50: 10 µM [rising, partial curve]

## CN(Cc1ccco1)c1nc(-c2cccc(C#N)c2)nc2ccccc12
[1]
  AC50: 10 µM [rising, partial curve]

## COc1cc(/C=C2\CCC/C(=C\c3ccc(O)c(OC)c3)C2=O)ccc1O
[3]; [4]
  AC50: 25.1 µM [falling, partial curve]
[3]; [5]
  AC50: 28.2 µM [rising, single point]

## OC[C@H](S)CS
[3]; [4]
  AC50: 22.4 µM [falling, partial curve, poor fit]
[3]; [5]
  AC50: 7.94 µM [rising, partial curve]

## CN1CCC[C@@H]1Cc1c[nH]c2ccc(CCS(=O)(=O)c3ccccc3)cc12
[3]; [4]
  AC50: 15.8 µM [falling, partial curve, poor fit]
[3]; [5]
  AC50: 1.12 µM [falling, full curve]

## C=C(CC[C@@H](C)[C@H]1CCC2[C@]1(C)CC[C@]13C[C@@]14CCC(OC(=O)/C=C/c1ccc(O)c(OC)c1)C(C)(C)[C@@H]4CC[C@@]23C)C(C)C (stereo partly drawn)
[3]; [4]
  AC50: 5.62 µM [falling, full curve, poor fit]
[3]; [5]
  AC50: 2 µM [falling, full curve]

## O=C1OC(OC(=O)c2cccnc2Nc2cccc(C(F)(F)F)c2)c2ccccc21 (stereo not drawn)
[3]; [4]
  AC50: 0.0178 µM [falling, full curve, poor fit]
[3]; [5]
  AC50: 31.6 µM [falling, partial curve]

## CC(C)CCC[C@@H](C)[C@H]1CC[C@H]2[C@@H]3CC[C@@H]4C[C@H](O)CC[C@]4(C)[C@H]3CC[C@]12C
[3]; [4]
  AC50: 14.1 µM [falling, single point]
[3]; [5]
  AC50: 12.6 µM [falling, single point]

## CC1CCCCN1CCCOC(=O)c1ccccc1 (stereo not drawn)
[3]; [4]
  AC50: 25.1 µM [rising, single point]
[3]; [5]
  AC50: 28.2 µM [rising, single point]

## C/C1=C2/[N-]C(C(CC(N)=O)[C@@]2(C)CCC(=O)NCC(C)OP(=O)([O-])O[C@H]2[C@@H](O)[C@@H](n3cnc4cc(C)c(C)cc43)O[C@@H]2CO)[C@]2(C)N=C(/C(C)=C3N=C(/C=C4N=C1C(CCC(N)=O)C\4(C)C)[C@@H](CCC(N)=O)[C@]\3(C)CC(N)=O)[C@@H](CCC(N)=O)[C@]2(C)CC(N)=O.CC(=O)O.[Co] (stereo partly drawn)
[3]; [4]
  AC50: 2.51 µM [falling, full curve]
[3]; [5]
  AC50: 2.51 µM [falling, full curve]

## O=[N+]([O-])c1ccc(O)c2ncccc12
[3]; [4]
  AC50: 12.6 µM [falling, full curve]
[3]; [5]
  AC50: 12.6 µM [falling, partial curve]
